Test results: PMC7819943, “Rice protein-binding microarrays: a tool to detect cis-acting elements near promoter regions in rice”
Some of the results follow.

What follows are sequences tested against T1, OsSMF1 (Oryza sativa, UniProt Q6ZLB0 1-436) (assay: protein-binding microarray (RPBM); PBS, 2% BSA, 51.3 ng/ul salmon testes DNA, 50 uM zinc acetate, 200 nM TF, 25 C, 1 h; high values mean tight binding). Conditions: protein: recombinant; tags: N-terminal polyhistidine and DsRed monomer fusion (pET32a); chain copies: 2; label: CyDye5-dUTP incorporated in the synthesized complementary strand; 3' TTTTT single-stranded linker to array surface; dsDNA, one strand shown.
T1 sequence: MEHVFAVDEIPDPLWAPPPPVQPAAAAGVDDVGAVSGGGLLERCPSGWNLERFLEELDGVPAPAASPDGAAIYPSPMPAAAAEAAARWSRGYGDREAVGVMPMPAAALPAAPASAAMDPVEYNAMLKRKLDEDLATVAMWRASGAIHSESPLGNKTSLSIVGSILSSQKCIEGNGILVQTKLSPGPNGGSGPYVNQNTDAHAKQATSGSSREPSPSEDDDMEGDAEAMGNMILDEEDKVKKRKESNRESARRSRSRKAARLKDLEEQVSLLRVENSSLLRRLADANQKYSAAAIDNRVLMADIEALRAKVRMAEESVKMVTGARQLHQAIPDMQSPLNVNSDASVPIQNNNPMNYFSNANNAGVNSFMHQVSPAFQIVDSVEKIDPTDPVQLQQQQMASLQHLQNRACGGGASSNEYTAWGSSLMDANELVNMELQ
Method in brief: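 Binding signal is reported as fluorescence intensity per feature (arbitrary units) from an Axon 4000B scanner. Incubation used 200 nM of each Ni–NTA-purified, N-terminally polyhistidine- and DsRed-fused transcription factor from E. coli BL21-CodonPlus on a double-stranded custom Agilent array for 1 h at 25 °C, with 50 µM zinc acetate in the buffer, followed by washing.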

Sequence | binding signal
CGCGCGAGTGCTAGGAAGCTGAGTCACGCCCGCCCTCCTCCGGAGTCACCTAGTGCAG | 10700 fluorescence intensity (a.u.)
TTACCTTCCAGGCTGACTCAGCTCGGCCTAGTCCGTACATCGGAGTCACCTAGTGCAG | 11100 fluorescence intensity (a.u.)
CAGATCGGCAGACCAGACCACGTGTACACCCAACACGAGGCGGAGTCACCTAGTGCAG | 8390 fluorescence intensity (a.u.)
GGCGTGGGCGGCCGTGTGCCCACGTCAAGACGTGCGTGGACGGAGTCACCTAGTGCAG | 5040 fluorescence intensity (a.u.)
CTCCGAGGAGCGACAAGGTACGTGGCTCTCCCCTTGCATTCGGAGTCACCTAGTGCAG | 4380 fluorescence intensity (a.u.)
TTTGTTCTCTGAGGCATGGATGTGTGCAGTATTATTCCCACGGAGTCACCTAGTGCAG | 3310 fluorescence intensity (a.u.)
TAACGGATGGCATCGTTTGCTTGACGTGCGACCCAGTCCGCGGAGTCACCTAGTGCAG | 3880 fluorescence intensity (a.u.)
ATACTCAAAACAACACGTGTTACAAATACAGTGGAAACCTCGGAGTCACCTAGTGCAG | 4050 fluorescence intensity (a.u.)
TTTGGGCTAGCTCGTTGATTGACACGTCTCCTGAGCATTTCGGAGTCACCTAGTGCAG | 4670 fluorescence intensity (a.u.)
ATGAGATTGGAATTAAACGTGTGTCCGAGTCAGCAACTCCCGGAGTCACCTAGTGCAG | 17200 fluorescence intensity (a.u.)
TTAATCCAAGCCTTTAATACATAAACCATCCTATGCTCAACGGAGTCACCTAGTGCAG | 16900 fluorescence intensity (a.u.)
CCGCCGGCTCTCCTTGCTGCCACCGTAGCCACCGGTGACGCGGAGTCACCTAGTGCAG | 4390 fluorescence intensity (a.u.)
GACTGGTGGCCACGACACGCGAGAAGTCCGACACGGCGTCCGGAGTCACCTAGTGCAG | 4030 fluorescence intensity (a.u.)
TCCATTAAGCCTCCGTTTAGTAAAGATAAAGATTGGTCAACGGAGTCACCTAGTGCAG | 44200 fluorescence intensity (a.u.)
AATTCAAGAGCTAGCTTAACACAAGTTCTAAGACAAATACCGGAGTCACCTAGTGCAG | 20400 fluorescence intensity (a.u.)
AATTTGGCATCTGACTGCAGGCACGCACTAGATATTGCTTCGGAGTCACCTAGTGCAG | 3160 fluorescence intensity (a.u.)
CTAGCGTGTGATTTTATCCTCCAACGTGGGAGATATTCCTCGGAGTCACCTAGTGCAG | 4320 fluorescence intensity (a.u.)
CCACGCAACGCAAGCCCGCTGTCAGTAGACGTCACCCGGTCGGAGTCACCTAGTGCAG | 5610 fluorescence intensity (a.u.)
CATGCCTATATAAGCCAAGTCACGCATGCTTAAACAACACCGGAGTCACCTAGTGCAG | 3890 fluorescence intensity (a.u.)
ATATGGTTGCCCAGTAGAGGATGTCATCACTGGATTGGCACGGAGTCACCTAGTGCAG | 4400 fluorescence intensity (a.u.)
ACATAAACTGATATTTTAGAGTATTATTTTATCGAAGCGCCGGAGTCACCTAGTGCAG | 3460 fluorescence intensity (a.u.)
CGTTGCTCCTCCTCGATCTGAACAGGACGAGCGGTGGCGCCGGAGTCACCTAGTGCAG | 3550 fluorescence intensity (a.u.)
CACACACCAACATCCACACATCTTTTCAAACCAATTCATCCGGAGTCACCTAGTGCAG | 4900 fluorescence intensity (a.u.)

Given in CSV form: entries from further up
Sequence,binding signal
CGCGCGAGTGCTAGGAAGCTGAGTCACGCCCGCCCTCCTCCGGAGTCACCTAGTGCAG,10700 fluorescence intensity (a.u.)
TTACCTTCCAGGCTGACTCAGCTCGGCCTAGTCCGTACATCGGAGTCACCTAGTGCAG,11100 fluorescence intensity (a.u.)
